Assay results reported in publication PMC9496542.
No constants are given. Whether binding was seen depends on the method and setting.

Molecular target: hNDRG1*C, the C-terminal intrinsically disordered region of human NDRG1 (human)
Assay: SEC-MALS; SEC-MALS-QELS; hNDRG1*C 300 uL at 1.2 mM on Superdex 75 10/300 GL; 20 mM HEPES pH 7.5, 150 mM NaCl, 1 mM TCEP; room temperature, 0.5 mL/min; without or with Ni(II); both purified

B1: hNDRG1*C, the C-terminal intrinsically disordered region of human NDRG1 (domain or fragment)
chain: GMGYMPSASMTRLMRSRTASGSSVTSLDGTRSRSHTSEGTRSRSHTSEGTRSRSHTSEGAHLDITPNSGAAGNSAGPKSMEVSC
- binding: no binding (tested: 1.2 mM loaded (300 uL))
